Assay: not given
Settings: Non Patent Document 1 / Patent Document 1; cited from earlier work

Compound	Scent
CCCCOC(=O)C(C)C [butyl isobutyrate]	fresh apple- and banana-like scent
COC(=O)C(C)C [methyl isobutyrate]	sweet apricot-like scent
CCCCCCOC(=O)C(C)(C)OCC [n-hexyl α-ethoxyisobutyrate]	lavender-like aroma
CCCOC(=O)C(C)C [propyl isobutyrate]	strong pineapple-like scent
CC(C)CCOC(=O)C(C)C [isoamyl isobutyrate]	sweet apricot- and pineapple-like scent

Assay: Aroma evaluation performed by perfumers for the α-hydroxyisobutyrate esters
Settings: ester alone
Description: The results of aroma evaluation performed by perfumers for the various α-hydroxyisobutyrate esters obtained by the method described above are shown in Table 1.

Compound	Aroma evaluation
CC(C)(O)C(=O)OC1CCCCC1 [Example 12, Cyclohexyl α-hydroxyisobutyrate]	Mint-like aroma Sweet coconut-like aroma Lilac-like floral aroma
CCC(C)COC(=O)C(C)(C)O (stereo not drawn) [Example 7, 2-Methylbutyl α-hydroxyisobutyrate]	Muguet-like floral aroma Lilac-like floral aroma Green mint-like aroma Coconut-like fruity aroma
CCC(C)OC(=O)C(C)(C)O (stereo not drawn) [Example 6, sec-Butyl α-hydroxyisobutyrate]	Floral green aroma Balsamic green aroma Fruity-like green aroma
CCCC(C)COC(=O)C(C)(C)O (stereo not drawn) [Example 9, 2-Methylpentyl α-hydroxyisobutyrate]	Peach-like fruity aroma Spicy pear-like aroma Coconut-like fruity aroma Fruity marine aroma
CC(C)CC(C)OC(=O)C(C)(C)O (racemic) [Example 13, 4-Methylpentan-2-yl α-hydroxyisobutyrate]	Green mint-like aroma Spicy aroma Jasmine-like floral aroma Peach-like fruity aroma
CC(C)(C)COC(=O)C(C)(C)O [Example 8, Neopentyl α-hydroxyisobutyrate]	Muguet-like floral aroma Rose-like floral aroma Fresh floral aroma Lilac-like floral aroma Coconut-like fruity aroma
CCOC(=O)C(C)(C)O [Example 1, ethyl α-hydroxyisobutyrate]	Mint-like aroma Chamomile-like herbal aroma Green apple-like fruity aroma
CC(C)OC(=O)C(C)(C)O [Example 3, Isopropyl α-hydroxyisobutyrate]	Mint-like aroma Lilac-like floral-green aroma
CCCCOC(=O)C(C)(C)O [Example 4, n-Butyl α-hydroxyisobutyrate]	Mint-like aroma Floral aroma Coconut-like aroma
CC(C)(O)C(=O)OC1CCCC1 [Example 11, Cyclopentyl α-hydroxyisobutyrate]	Fresh mint-like aroma Fruity aroma Lilac-like, lily of the valley-like, and gardenia-like White floral aroma
CC(C)COC(=O)C(C)(C)O [Example 5, Isobutyl α-hydroxyisobutyrate]	Mint-like aroma Sweet floral aroma Coconut-like aroma
CCCOC(=O)C(C)(C)O [Example 2, n-Propyl α-hydroxyisobutyrate]	Mint-like aroma Lilac-like white floral aroma Sweet coconut-like aroma
CCCCCCOC(=O)C(C)(C)O [Example 10, n-Hexyl α-hydroxyisobutyrate]	Sweet milky aroma Floral aroma Strong green aroma

Assay: Comparative aroma evaluation by perfumers of mint-tone fragrances diluted with ester of Example 3 versus ethanol
Settings: 10 parts by mass of mint fragrance in 90 parts by mass of isopropyl α-hydroxyisobutyrate versus 90 parts 99.5% ethanol
Experimental: A fragrance composition was prepared by adding 90 parts by mass of the isopropyl α-hydroxyisobutyrate obtained in Example 3 to 10 parts by mass of L-menthol. In addition, a fragrance composition was prepared, as a comparative target, by adding 90 parts by mass of 99.5% ethanol to 10 parts by mass of L-menthol. According to the aroma evaluation by perfumers, the difference between both the aromas were comparatively evaluated. DL-menthone and L-carvone were also comparatively evaluated in the same manner.

Compound	Aroma evaluation of solution of ester of Example 3 in comparison with ethanol solution
CC(C)[C@@H]1CC[C@@H](C)CC1=O (racemic) [DL-Menthone, DL-menthone]	A more natural mint-like aroma having an emphasized
L-carvone	A more natural and mild mint-like aroma, to which a
CC(C)[C@@H]1CC[C@@H](C)C[C@H]1O [L-Menthol, L-menthol]	A more natural mint-like aroma having an emphasized

Reference: patent US11441098B2, “α-hydroxyisobutyrate ester compound, fragrance composition, and use thereof as fragrance” (MITSUBISHI GAS CHEMICAL COMPANY, INC., priority 2018, dated 2022)
